Reference: publication PMC5341030

Protein sequences, listed by entry. Tags and fused reporters are not part of them. Lines headed by an entry give the natural chain unless they say otherwise; changes in a name come on top.
UniProt Q7G1L2: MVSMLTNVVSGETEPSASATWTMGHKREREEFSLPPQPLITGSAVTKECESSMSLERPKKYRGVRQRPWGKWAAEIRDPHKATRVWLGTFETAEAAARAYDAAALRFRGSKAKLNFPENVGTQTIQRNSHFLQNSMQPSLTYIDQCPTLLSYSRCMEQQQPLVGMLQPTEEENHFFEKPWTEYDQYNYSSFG

Biological target: RAP2.6 (His-HA-RAP2.6) (Arabidopsis thaliana) (UniProt Q7G1L2)
Experiment: EMSA
Conditions: 10 mM Tris, 50 mM KCl, 1 mM DTT, 1 ug poly(dI-dC), pH 7.5, 20 ul, room temperature 20 min, 6% PAGE in 0.5x TBE, recombinant protein, residues 1-192, protein details: His-HA (N-terminal, pET28a), label: biotin

Sequence | binding result (no RACK1B, 0.5 ug RAP2.6, 100 fmol probe) | binding result (with increasing RACK1B (P2): binding decreased) | binding result (no RACK1B, 1 ug RAP2.6, 50 fmol probe) | binding result (with increasing RACK1B (P2): binding gradually improved)
GGAATTCAGCCGCCAGCCGCCAGCCGCCAGCCGCCTCTAGAGC (double strand) [4xGCC element (GCC-box)] | binds | binds more weakly | – | –
GGAATTCTGCCACCGGTGCCACCGGTGCCACCGGTGCCACCGGTCTAGAGC (double strand) [4xCE1 element] | – | – | binds | binds

For at least one entry, the source does not settle the construct or the ends of the probe. Weaker means in comparison with the reference protein, sequence or condition of that experiment. At least one verdict rests on a figure or table, not on a statement of the authors.
